# Measured values from PMC8079021.
# The chains behind the UniProt entries cited, without tags or fusion partners. Where a name states a change or a piece, a line headed by the entry shows the natural chain unless it says otherwise. Residues count along the entry.
# UniProt P0CS90, residues 24-654: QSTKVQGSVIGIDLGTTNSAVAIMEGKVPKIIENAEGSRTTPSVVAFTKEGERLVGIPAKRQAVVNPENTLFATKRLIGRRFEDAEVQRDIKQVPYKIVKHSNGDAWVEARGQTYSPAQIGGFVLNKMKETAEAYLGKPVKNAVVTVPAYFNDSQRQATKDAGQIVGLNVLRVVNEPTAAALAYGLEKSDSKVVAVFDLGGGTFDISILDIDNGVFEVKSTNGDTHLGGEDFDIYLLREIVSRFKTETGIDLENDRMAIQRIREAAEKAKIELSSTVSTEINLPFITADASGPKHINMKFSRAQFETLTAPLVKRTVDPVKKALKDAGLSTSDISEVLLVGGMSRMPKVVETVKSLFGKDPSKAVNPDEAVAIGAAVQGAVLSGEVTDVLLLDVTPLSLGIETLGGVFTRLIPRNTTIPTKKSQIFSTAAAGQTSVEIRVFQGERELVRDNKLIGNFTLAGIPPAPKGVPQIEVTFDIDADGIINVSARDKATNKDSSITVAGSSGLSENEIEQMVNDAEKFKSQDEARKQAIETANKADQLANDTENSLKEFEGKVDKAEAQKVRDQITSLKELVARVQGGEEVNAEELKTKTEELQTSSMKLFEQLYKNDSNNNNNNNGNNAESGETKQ
# UniProt Q03178: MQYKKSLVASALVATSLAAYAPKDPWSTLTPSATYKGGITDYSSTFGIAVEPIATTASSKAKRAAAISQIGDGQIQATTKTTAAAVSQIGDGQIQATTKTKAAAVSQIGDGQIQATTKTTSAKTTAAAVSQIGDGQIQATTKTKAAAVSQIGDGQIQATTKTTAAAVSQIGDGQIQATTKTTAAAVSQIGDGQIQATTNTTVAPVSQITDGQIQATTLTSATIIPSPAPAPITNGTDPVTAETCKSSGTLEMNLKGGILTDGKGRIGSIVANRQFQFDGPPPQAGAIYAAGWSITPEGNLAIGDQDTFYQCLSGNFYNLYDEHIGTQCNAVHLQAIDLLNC
# Results are given in words; binding and its absence hold for the method and conditions named. In cells and extracts the contact can be indirect. These calls come from enrichment with a bait or labelling near it, and not all partners need be listed. For some assays here: No binding means not detected with the bait. Tags and fused reporters may be left off the sequences shown.
# T1: Mrn1 (endogenous MRN1 gene tagged with Sbp, TEV protease cleavage site and Halo-tag) (Saccharomyces cerevisiae) (UniProt Q08925)
# T1 sequence: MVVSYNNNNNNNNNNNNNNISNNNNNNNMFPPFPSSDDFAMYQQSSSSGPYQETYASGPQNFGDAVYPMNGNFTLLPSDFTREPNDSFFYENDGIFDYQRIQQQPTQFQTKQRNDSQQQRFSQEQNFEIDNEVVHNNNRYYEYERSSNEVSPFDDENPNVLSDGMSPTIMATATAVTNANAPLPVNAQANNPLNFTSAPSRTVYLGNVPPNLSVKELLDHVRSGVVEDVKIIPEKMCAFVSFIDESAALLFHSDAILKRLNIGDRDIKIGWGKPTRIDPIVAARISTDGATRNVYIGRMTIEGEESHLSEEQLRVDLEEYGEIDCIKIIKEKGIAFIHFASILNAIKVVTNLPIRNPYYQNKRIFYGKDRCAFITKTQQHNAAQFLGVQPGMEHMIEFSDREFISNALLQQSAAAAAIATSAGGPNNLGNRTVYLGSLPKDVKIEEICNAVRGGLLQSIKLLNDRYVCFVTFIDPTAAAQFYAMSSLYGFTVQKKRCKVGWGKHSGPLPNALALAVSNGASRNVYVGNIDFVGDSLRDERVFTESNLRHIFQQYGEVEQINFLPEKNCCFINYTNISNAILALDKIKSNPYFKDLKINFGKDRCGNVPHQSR
# Molecular target: T1, Mrn1 (endogenous MRN1 gene tagged with Sbp, TEV protease cleavage site and Halo-tag) (Saccharomyces cerevisiae)
# Assay: affinity purification with mass spectrometry; lysates of cells in rich (fermentative) or low-glucose/respiratory media, cryogrinding, cross-linked ex vivo with 20 mM EDC; Halo-tagged Mrn1 captured covalently on Halo Magna beads 3 h at 4°C; washes with 8 M urea, 50 mM HEPES pH 7.5, 150 mM NaCl, 1% Triton X-100; TEV elution; TMT quantitative LC-MS against an mCherry control; single replicates
row,Molecule,binding
1,Ssc1 (from UniProt P0CS90 24-654),binds
2,Pir1 (from UniProt Q03178),binds
3,"Ecm33 (protein, UniProt P38248 20-406) ANSTTSIPSSCSIGTSATATAQADLDKISGCSTIVGNLTITGDLGSAALASIQEIDGSLTIFNSSSLSSFSADSIKKITGDLNMQELIILTSASFGSLQEVDSINMVTLPAISTFSTDLQNANNIIVSDTTLESVEGFSTLKKVNVFNINNNRYLNSFQSSLESVSDSLQFSSNGDNTTLAFDNLVWANNITLRDVNSISFGSLQTVNASLGFINNTLPSLNLTQLSKVGQSLSIVSNDELSKAAFSNLTTVGGGFIIANNTQLKVIDGFNKVQTVGGAIEVTGNFSTLDLSSLKSVRGGANFDSSSSNFSCNALKKLQSNGAIQGDSFVCKNGATSTSVKLSSTSTESSKSSATSSASSSGDASNAQANVSASASSSSSSSKKSKG",binds
4,"Zeo1 (protein, UniProt Q08245 1-113) MSEIQNKAETAAQDVQQKLEETKESLQNKGQEVKEQAEASIDNLKNEATPEAEQVKKEEQNIADGVEQKKTEAANKVEETKKQASAAVSEKKETKKEGGFLKKLNRKIASIFN",binds
5,"Lsm1 (protein, UniProt P47017 1-172) MSANSKDRNQSNQDAKRQQQNFPKKISEGEADLYLDQYNFTTTAAIVSSVDRKIFVLLRDGRMLFGVLRTFDQYANLILQDCVERIYFSEENKYAEEDRGIFMIRGENVVMLGEVDIDKEDQPLEAMERIPFKEAWLTKQKNDEKRFKEETHKGKKMARHGIVYDFHKSDMY",binds
6,"Tom22 (protein, UniProt P49334 1-152) MVELTEIKDDVVQLDEPQFSRNQAIVEEKASATNNDVVDDEDDSDSDFEDEFDENETLLDRIVALKDIVPPGKRQTISNFFGFTSSFVRNAFTKSGNLAWTLTTTALLLGVPLSLSILAEQQLIEMEKTFDLQSDANNILAQGEKDAAATAN",binds
7,"Tim23 (protein, UniProt P32897 1-222) MSWLFGDKTPTDDANAAVGGQDTTKPKELSLKQSLGFEPNINNIISGPGGMHVDTARLHPLAGLDKGVEYLDLEEEQLSSLEGSQGLIPSRGWTDDLCYGTGAVYLLGLGIGGFSGMMQGLQNIPPNSPGKLQLNTVLNHITKRGPFLGNNAGILALSYNIINSTIDALRGKHDTAGSIGAGALTGALFKSSKGLKPMGYSSAMVAAACAVWCSVKKRLLEK",binds

# Molecular target: T1, Mrn1 (endogenous MRN1 gene tagged with Sbp, TEV protease cleavage site and Halo-tag) (Saccharomyces cerevisiae)
# Assay: affinity purification with mass spectrometry; as a1, lysate of cells in fermentative growth only
row,Molecule,binding
1,"Lsm2 (protein, UniProt P38203 1-95) MLFFSFFKTLVDQEVVVELKNDIEIKGTLQSVDQFLNLKLDNISCTDEKKYPHLGSVRNIFIRGSTVRYVYLNKNMVDTNLLQDATRREVMTERK",no binding
2,"Lsm3 (protein, UniProt P57743 1-89) METPLDLLKLNLDERVYIKLRGARTLVGTLQAFDSHCNIVLSDAVETIYQLNNEELSESERRCEMVFIRGDTVTLISTPSEDDDGAVEI",no binding
3,"Lsm4 (protein, UniProt P40070 1-187) MLPLYLLTNAKGQQMQIELKNGEIIQGILTNVDNWMNLTLSNVTEYSEESAINSEDNAESSKAVKLNEIYIRGTFIKFIKLQDNIIDKVKQQINSNNNSNSNGPGHKRYYNNRDSNNNRGNYNRRNNNNGNSNRRPYSQNRQYNNSNSSNINNSINSINSNNQNMNNGLGGSVQHHFNSSSPQKVEF",no binding
4,"Lsm5 (protein, UniProt P40089 1-93) MSLPEILPLEVIDKTINQKVLIVLQSNREFEGTLVGFDDFVNVILEDAVEWLIDPEDESRNEKVMQHHGRMLLSGNNIAILVPGGKKTPTEAL",no binding
5,"Lsm6 (protein, UniProt Q06406 1-86) MSGKASTEGSVTTEFLSDIIGKTVNVKLASGLLYSGRLESIDGFMNVALSSATEHYESNNNKLLNKFNSDVFLRGTQVMYISEQKI",no binding
6,"Lsm7 (protein, UniProt P53905 1-115) MHQQHSKSENKPQQQRKKFEGPKREAILDLAKYKDSKIRVKLMGGKLVIGVLKGYDQLMNLVLDDTVEYMSNPDDENNTELISKNARKLGLTVIRGTILVSLSSAEGSDVLYMQK",no binding

# Molecular target: T1, Mrn1 (endogenous MRN1 gene tagged with Sbp, TEV protease cleavage site and Halo-tag) (Saccharomyces cerevisiae)
# Assay: condition: only lysate of cells in fermentative growth; affinity purification with mass spectrometry; as a1, lysate of cells in fermentative growth only
row,Molecule,binding
1,"Lsm1 (protein, UniProt P47017 1-172) MSANSKDRNQSNQDAKRQQQNFPKKISEGEADLYLDQYNFTTTAAIVSSVDRKIFVLLRDGRMLFGVLRTFDQYANLILQDCVERIYFSEENKYAEEDRGIFMIRGENVVMLGEVDIDKEDQPLEAMERIPFKEAWLTKQKNDEKRFKEETHKGKKMARHGIVYDFHKSDMY",no binding
